PubChem BioAssay AID493246 | Drosophila RNAi Screening Center, 2011

- Test: 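Identify essential fly genes by loss of cell viability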 (primary screen)
- Cell system: Drosophila Kc and S2R+ cells
- Knock-down reagent: long dsRNA against Drosophila genes
- Measured: 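Raw, unnormalised count of remaining cells in each well; per-plate z-scores of cell number underlie the calls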
- Scale: Kc cell number and S2R+ cell number: higher = more cells remaining
- Rule for the call: 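Counted as a hit if cell number falls by a z-score of at least 3 within its plate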
The screen tested about 21,000 reagents; below is an unselected part of those with a known target gene and a result. Over the whole deposit, 429 (2%) got an active call. 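Values are raw and not normalised between plates; calls rest on per-plate z-scores that were not deposited.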 The numbers tell different reagents against one gene apart. Not stated in the record: the amount of reagent, the time to read-out.

With al, what was measured?
Kc cell number, rep 1: 1.61e6; Kc cell number, rep 2: 1.70e6; S2R+ cell number, rep 1: 1.13e6; S2R+ cell number, rep 2: 1.28e6; Outcome: inactive

What did the screen give for RhoGAP16F?
Kc cell number, rep 1: 1.41e6; Kc cell number, rep 2: 1.45e6; S2R+ cell number, rep 1: 1.02e6; S2R+ cell number, rep 2: 1.20e6; Outcome: inactive

What is on record for L2HGDH?
Kc cell number, rep 1: 1.46e6; Kc cell number, rep 2: 1.58e6; S2R+ cell number, rep 1: 1.31e6; S2R+ cell number, rep 2: 1.22e6; Outcome: inactive

With CG13868, what was measured?
Kc cell number, rep 1: 1.24e6; Kc cell number, rep 2: 1.26e6; S2R+ cell number, rep 1: 1.11e6; S2R+ cell number, rep 2: 1.18e6; Outcome: inactive

Reformatted: 2 of the entries above.
Gene,reagent,"Kc cell number, rep 1","Kc cell number, rep 2","S2R+ cell number, rep 1","S2R+ cell number, rep 2",Outcome
RhoGAP16F,1,1.41e6,1.45e6,1.02e6,1.20e6,inactive
L2HGDH,1,1.46e6,1.58e6,1.31e6,1.22e6,inactive

The list goes on.
What is on record for Ebp?
Kc cell number, rep 1: 1.44e6; Kc cell number, rep 2: 1.44e6; S2R+ cell number, rep 1: 1.17e6; S2R+ cell number, rep 2: 1.20e6; Outcome: inactive

For CG33128, what does the deposit list?
Kc cell number, rep 1: 1.57e6; Kc cell number, rep 2: 1.59e6; S2R+ cell number, rep 1: 1.17e6; S2R+ cell number, rep 2: 1.35e6; Outcome: inactive

With CG31088, how do the results read?
Kc cell number, rep 1: 1.41e6; Kc cell number, rep 2: 1.56e6; S2R+ cell number, rep 1: 1.08e6; S2R+ cell number, rep 2: 1.14e6; Outcome: inactive

With CG43773 #1, how do the results read?
Kc cell number, rep 1: 1.72e6; Kc cell number, rep 2: 1.71e6; S2R+ cell number, rep 1: 1.12e6; S2R+ cell number, rep 2: 1.28e6; Outcome: inactive

With CG43773 #2, what does the deposit list?
Kc cell number, rep 1: 1.65e6; Kc cell number, rep 2: 1.59e6; S2R+ cell number, rep 1: 1.27e6; S2R+ cell number, rep 2: 1.47e6; Outcome: inactive

Which result is listed for AkhR?
Kc cell number, rep 1: 1.26e6; Kc cell number, rep 2: 1.30e6; S2R+ cell number, rep 1: 7.14e5; S2R+ cell number, rep 2: 5.59e5; Outcome: inactive

What did the screen give for Scgbeta?
Kc cell number, rep 1: 1.60e6; Kc cell number, rep 2: 1.81e6; S2R+ cell number, rep 1: 1.24e6; S2R+ cell number, rep 2: 1.34e6; Outcome: inactive

For CG6329, what does the deposit list?
Kc cell number, rep 1: 1.37e6; Kc cell number, rep 2: 1.50e6; S2R+ cell number, rep 1: 2.63e5; S2R+ cell number, rep 2: 1.15e6; Outcome: inactive
